Test results from ChEMBL document CHEMBL4043292, “Discovery and Optimization of Phosphopantetheine Adenylyltransferase Inhibitors with Gram-Negative Antibacterial Activity” (J Med Chem, 2018).

Key:
physchem [1] = conditions: buffer, pH 7.4
physchem [2] = conditions: buffer

Cc1cc(N2CCN(C)CC2)c2[nH]c(N[C@H](CC#N)c3cccc(Cl)c3)nc2n1
logD (physchem [1]): 2.6 | solubility (physchem [2]): > 547 µg/mL
